Test results: article PMC4459659
Results are given in words; binding and its absence hold for the method and conditions named. In cells and extracts the contact can be indirect. Some binding calls cover weakened binding; strength is not graded here.

The chains behind the UniProt entries cited, without tags or fusion partners. Residues count along the entry.
UniProt P05106, residues 27-788: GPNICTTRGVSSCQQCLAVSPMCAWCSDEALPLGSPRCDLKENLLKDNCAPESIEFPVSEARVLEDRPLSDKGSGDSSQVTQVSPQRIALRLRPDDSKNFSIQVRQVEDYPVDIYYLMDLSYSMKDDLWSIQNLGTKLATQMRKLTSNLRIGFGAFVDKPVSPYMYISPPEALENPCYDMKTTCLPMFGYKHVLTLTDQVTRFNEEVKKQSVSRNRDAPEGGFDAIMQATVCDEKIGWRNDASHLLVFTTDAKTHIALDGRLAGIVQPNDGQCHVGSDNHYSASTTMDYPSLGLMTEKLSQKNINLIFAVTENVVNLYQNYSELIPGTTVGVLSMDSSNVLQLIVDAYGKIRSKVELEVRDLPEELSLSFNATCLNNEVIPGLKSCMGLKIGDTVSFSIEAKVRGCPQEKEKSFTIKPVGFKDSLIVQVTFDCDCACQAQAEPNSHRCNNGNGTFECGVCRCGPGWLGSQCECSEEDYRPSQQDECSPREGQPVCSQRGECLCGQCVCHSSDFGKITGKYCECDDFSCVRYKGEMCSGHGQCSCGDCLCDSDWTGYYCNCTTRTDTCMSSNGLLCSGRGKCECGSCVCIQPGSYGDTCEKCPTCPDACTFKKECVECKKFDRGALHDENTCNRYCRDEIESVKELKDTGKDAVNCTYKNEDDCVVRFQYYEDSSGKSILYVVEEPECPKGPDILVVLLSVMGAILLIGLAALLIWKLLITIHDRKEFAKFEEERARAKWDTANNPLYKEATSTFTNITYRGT
UniProt P41240: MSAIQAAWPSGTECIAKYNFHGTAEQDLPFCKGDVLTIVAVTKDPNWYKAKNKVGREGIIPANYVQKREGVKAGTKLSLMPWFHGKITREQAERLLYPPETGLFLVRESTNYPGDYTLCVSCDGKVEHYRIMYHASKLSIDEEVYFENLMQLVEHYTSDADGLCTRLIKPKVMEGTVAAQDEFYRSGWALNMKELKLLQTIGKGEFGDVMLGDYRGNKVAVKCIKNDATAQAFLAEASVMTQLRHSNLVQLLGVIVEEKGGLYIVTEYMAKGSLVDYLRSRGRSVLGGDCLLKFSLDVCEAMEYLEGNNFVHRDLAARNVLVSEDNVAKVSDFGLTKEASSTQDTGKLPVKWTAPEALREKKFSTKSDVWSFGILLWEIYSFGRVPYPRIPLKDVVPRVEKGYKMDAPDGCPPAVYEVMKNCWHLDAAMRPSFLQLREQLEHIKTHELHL

Target: integrin β3 (human (endogenous in platelets)) (UniProt P05106)
Experiment: co-IP; washed human platelets (pretreated with peptide or not), RIPA lysate, 4 °C; precipitated with anti-β3 antibody, blotted with anti-β3, anti-Src and anti-Csk antibodies

Csk (from UniProt P41240 1-450) (enzyme)
binding: binds
